Assay results from PubChem BioAssay AID328 (DTP/NCI, 2004).
The list shows only some results of the screen, not a fair sample: it gathers tests that were run many times, whatever their T/C, doses with no T/C, and many T/C values between a quarter and a half above the control. Further doses and runs are listed elsewhere. T/C gives the treated animals as a percentage of the vehicle group. Some doses have a count of surviving animals in place of a T/C: the source holds a T/C of zero for them, seemingly a mark for toxic or unscored doses. Some survivor counts are full or nearly so, which does not show that the dose was tolerated: survival well below the control is almost never listed, so the zero probably covers shortened survival too. Survivors were counted at the toxicity check, usually on the fifth day, unless a day is given; later deaths do not show. Schedule codes are those of the source, read here as Q, the interval in days (D) or hours (H), X, the number of doses. Some entries hold several experiments; the results are listed from low to high. For survival time, the PubChem record calls one and a half times the control and up active, and a quarter to a half above the control has no call in these data; cut-offs in other NCI protocols can differ.

Tested on: BDF1 mice, P388 leukemia ip, median survival T/C
Assay: NCI In Vivo Anticancer Drug Screen. Data for tumor model P388 Leukemia (intraperitoneal) in B6D2F1 (BDF1) mice
Details: T/C endpoint: median survival time, higher T/C = longer survival
Procedure, shortened: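 In tumour-bearing mice, survival after compound treatment is set against the vehicle group and given as a quotient.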

[1] = dose: 50.0 mg/kg/injection, schedule: Q01DX009 (ip), vehicle: saline with Tween-80
[2] = dose: 100.0 mg/kg/injection, schedule: Q01DX009 (ip), vehicle: saline with Tween-80
[3] = dose: 200.0 mg/kg/injection, schedule: Q01DX009 (ip), vehicle: saline with Tween-80
[4] = dose: 100.0 mg/kg/injection, schedule: Q04DX003 (ip), vehicle: saline
[5] = dose: 200.0 mg/kg/injection, schedule: Q04DX003 (ip), vehicle: saline

**Q.** `O=C(c1cc2c3ccccc3ccc2c2ccccc12)C(Br)Br` was tested. Which T/C [1] did it give?
**A.** The T/C was 127 % of control.

**Q.** What about the T/C [2] of the same compound?
**A.** The T/C was 127 % of control.

**Q.** Which results are given for `CC1(C)C2CCC(CN)C1C2` (stereo not drawn)?
**A.** T/C (dose: 50.0 mg/kg/injection, schedule: Q01DX009 (ip), vehicle: other): 134 % of control; survivor count (dose: 200.0 mg/kg/injection, schedule: Q01DX009 (ip), vehicle: other): 0 of 6

**Q.** Which survivor count (dose: 25.0 mg/kg/injection, schedule: Q01DX009 (ip), vehicle: saline with Tween-80) does the source give for `O=C(NC(=O)c1c(F)cccc1F)Nc1ccc(Cl)nc1` here?
**A.** Its survivor count is 6 of 6.

**Q.** What about the survivor count [1] of the same compound?
**A.** Its survivor count is 6 of 6.

**Q.** `N#CCSc1ncnc2nc[nH]c12` was tested. Which survivor count (dose: 240.0 mg/kg/injection, schedule: Q01DX010 (ip), vehicle: saline) did it give?
**A.** The survivor count was 0 of 6 and 2 of 6.

**Q.** For `CC(=O)OC1CC2(O)C(CCC3(C)C(c4ccc(=O)oc4)CCC32O)C2(C)C1=CC(O)C1OC12` (stereo not drawn), which survivor count (dose: 1.0 mg/kg/injection, schedule: Q01DX010 (ip), vehicle: carboxymethylcellulose (CMC)) is on record?
**A.** Its survivor count is 2 of 6.

**Q.** What about the survivor count (dose: 2.0 mg/kg/injection, schedule: Q01DX010 (ip), vehicle: carboxymethylcellulose (CMC)) of the same compound?
**A.** Its survivor count is 0 of 6.

**Q.** For `FC(F)(F)C(F)(F)c1nc2nc(Cl)c(Cl)nc2[nH]1`, which survivor count (dose: 100.0 mg/kg/injection, schedule: Q01DX009 (ip), vehicle: other) is on record?
**A.** The survivor count was 4 of 6.

**Q.** With `COc1cccc2c1C(=O)c1c(O)c3c(c(O)c1C2=O)C[C@@](O)(C(=O)CO)C[C@@H]3OC1CC([N+](C)(C)C)C(O)C(C)O1` (stereo partly drawn) as the compound, how does the T/C (dose: 8.64 mg/kg/injection, schedule: Q04DX003 (ip), vehicle: water) read?
**A.** Its T/C is 129 % of control.

**Q.** And the T/C (dose: 14.4 mg/kg/injection, schedule: Q04DX003 (ip), vehicle: water)?
**A.** Its T/C is 136 % of control.

**Q.** What about the survivor count (dose: 24.0 mg/kg/injection, schedule: Q04DX003 (ip), vehicle: water) of the same compound?
**A.** The survivor count was 5 of 8.

**Q.** And the survivor count (dose: 40.0 mg/kg/injection, schedule: Q04DX003 (ip), vehicle: water)?
**A.** The survivor count was 3 of 8.

**Q.** Which survivor count [2] does the source give for `O=C1c2cc(Cl)ccc2-c2c(NC(=O)C(Cl)Cl)cc(Cl)cc21` here?
**A.** The survivor count was 6 of 6.

**Q.** What about the survivor count [3] of the same compound?
**A.** The survivor count was 5 of 6.

**Q.** And the survivor count (dose: 400.0 mg/kg/injection, schedule: Q01DX009 (ip), vehicle: saline with Tween-80)?
**A.** Its survivor count is 6 of 6.

**Q.** For `NC(=S)c1nn(C2OC(CO)C(O)C2O)c2ncnc(N)c12` (stereo not drawn), which T/C (dose: 1.5 mg/kg/injection, schedule: Q01DX009 (ip), vehicle: saline) is on record?
**A.** Its T/C is 125 % of control.

**Q.** And the T/C (dose: 3.0 mg/kg/injection, schedule: Q01DX009 (ip), vehicle: saline)?
**A.** The T/C was 131 % of control.

**Q.** And the survivor count [4]?
**A.** The survivor count was 0 of 6.

**Q.** And the survivor count [5]?
**A.** Its survivor count is 0 of 6.

**Q.** What about the survivor count (dose: 400.0 mg/kg/injection, schedule: Q04DX003 (ip), vehicle: saline) of the same compound?
**A.** Its survivor count is 0 of 6.

**Q.** With `CCCCCCCCCCN1CCOCCOCCN(CCCCCCCCCC)CCOCCOCC1` as the compound, how does the survivor count (dose: 12.5 mg/kg/injection, schedule: Q01DX005 (ip), vehicle: saline with Tween-80) read?
**A.** The survivor count was 2 of 5.

**Q.** `O=C(O)/C=C\c1c[nH]c2nccnc12` was tested. Which survivor count (dose: 75.0 mg/kg/injection, schedule: Q01DX009 (ip), vehicle: saline) did it give?
**A.** Its survivor count is 3 of 6.

**Q.** What about the survivor count [4] of the same compound?
**A.** The survivor count was 4 of 6.

**Q.** And the survivor count [5]?
**A.** Its survivor count is 0 of 6.

**Q.** `CCOCN(COCC)c1cccc(Cl)c1` was tested. Which T/C [2] did it give?
**A.** The T/C was 139 % of control.

**Q.** And the T/C [3]?
**A.** The T/C was 144 % of control.
